The supplement of paper PMC10849652
This is one part of the list.

Protein sequences, listed by entry. Tags and fused reporters are not part of them. Lines headed by an entry give the natural chain unless they say otherwise; changes in a name come on top.
UniProt Q96LB3: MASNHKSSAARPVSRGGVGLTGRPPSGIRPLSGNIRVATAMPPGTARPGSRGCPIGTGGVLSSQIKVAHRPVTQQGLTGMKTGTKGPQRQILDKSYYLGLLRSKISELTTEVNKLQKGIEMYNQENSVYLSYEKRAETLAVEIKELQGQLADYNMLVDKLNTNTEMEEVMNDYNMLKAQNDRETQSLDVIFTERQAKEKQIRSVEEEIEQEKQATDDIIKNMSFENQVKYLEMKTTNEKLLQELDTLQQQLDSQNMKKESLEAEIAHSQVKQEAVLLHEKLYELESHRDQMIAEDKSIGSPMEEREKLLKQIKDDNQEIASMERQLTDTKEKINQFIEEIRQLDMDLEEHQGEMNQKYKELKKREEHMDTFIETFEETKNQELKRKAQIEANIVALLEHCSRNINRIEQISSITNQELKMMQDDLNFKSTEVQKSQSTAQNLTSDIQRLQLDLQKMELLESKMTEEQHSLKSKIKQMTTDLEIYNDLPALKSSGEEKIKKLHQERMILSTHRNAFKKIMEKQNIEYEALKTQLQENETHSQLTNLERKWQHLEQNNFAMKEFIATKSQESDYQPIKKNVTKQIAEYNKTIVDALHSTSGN
UniProt Q9NZL4: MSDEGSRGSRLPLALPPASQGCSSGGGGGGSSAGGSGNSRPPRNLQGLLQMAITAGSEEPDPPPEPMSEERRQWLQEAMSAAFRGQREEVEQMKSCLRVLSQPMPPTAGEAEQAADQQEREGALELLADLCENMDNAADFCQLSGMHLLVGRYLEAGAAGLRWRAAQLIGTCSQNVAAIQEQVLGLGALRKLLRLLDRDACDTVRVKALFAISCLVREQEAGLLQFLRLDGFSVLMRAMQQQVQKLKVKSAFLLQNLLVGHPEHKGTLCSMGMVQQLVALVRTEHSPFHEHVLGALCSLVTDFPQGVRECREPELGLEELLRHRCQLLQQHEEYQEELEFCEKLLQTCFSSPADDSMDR
UniProt Q13907: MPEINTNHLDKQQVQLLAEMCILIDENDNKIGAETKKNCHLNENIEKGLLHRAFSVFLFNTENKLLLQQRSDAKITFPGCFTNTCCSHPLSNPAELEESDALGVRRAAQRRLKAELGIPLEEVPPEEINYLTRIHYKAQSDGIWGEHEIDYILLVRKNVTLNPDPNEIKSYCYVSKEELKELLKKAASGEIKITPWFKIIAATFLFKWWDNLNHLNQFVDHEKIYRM
UniProt Q9Y5U9: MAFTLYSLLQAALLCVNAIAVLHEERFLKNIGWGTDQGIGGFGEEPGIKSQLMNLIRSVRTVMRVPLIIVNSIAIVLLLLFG
UniProt P01860, whole entry, looked up: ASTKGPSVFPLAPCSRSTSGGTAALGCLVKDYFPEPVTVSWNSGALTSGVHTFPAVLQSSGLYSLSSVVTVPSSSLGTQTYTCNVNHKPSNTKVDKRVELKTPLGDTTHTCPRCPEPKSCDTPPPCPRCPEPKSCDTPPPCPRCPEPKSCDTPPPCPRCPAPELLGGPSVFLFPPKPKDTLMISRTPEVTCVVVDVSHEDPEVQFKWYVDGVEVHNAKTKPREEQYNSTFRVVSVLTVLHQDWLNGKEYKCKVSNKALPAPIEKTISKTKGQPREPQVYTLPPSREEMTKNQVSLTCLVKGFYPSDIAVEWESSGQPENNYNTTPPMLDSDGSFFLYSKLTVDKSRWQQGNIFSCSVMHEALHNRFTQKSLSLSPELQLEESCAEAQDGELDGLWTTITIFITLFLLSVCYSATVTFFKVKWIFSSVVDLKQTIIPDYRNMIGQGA
IGKV3D-7, A0A0C4DH55, UniProt A0A0C4DH55, whole entry, looked up: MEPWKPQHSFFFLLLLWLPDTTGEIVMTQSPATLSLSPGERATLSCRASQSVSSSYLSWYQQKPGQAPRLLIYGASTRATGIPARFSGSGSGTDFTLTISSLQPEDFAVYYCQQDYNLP
UniProt Q9Y2H2: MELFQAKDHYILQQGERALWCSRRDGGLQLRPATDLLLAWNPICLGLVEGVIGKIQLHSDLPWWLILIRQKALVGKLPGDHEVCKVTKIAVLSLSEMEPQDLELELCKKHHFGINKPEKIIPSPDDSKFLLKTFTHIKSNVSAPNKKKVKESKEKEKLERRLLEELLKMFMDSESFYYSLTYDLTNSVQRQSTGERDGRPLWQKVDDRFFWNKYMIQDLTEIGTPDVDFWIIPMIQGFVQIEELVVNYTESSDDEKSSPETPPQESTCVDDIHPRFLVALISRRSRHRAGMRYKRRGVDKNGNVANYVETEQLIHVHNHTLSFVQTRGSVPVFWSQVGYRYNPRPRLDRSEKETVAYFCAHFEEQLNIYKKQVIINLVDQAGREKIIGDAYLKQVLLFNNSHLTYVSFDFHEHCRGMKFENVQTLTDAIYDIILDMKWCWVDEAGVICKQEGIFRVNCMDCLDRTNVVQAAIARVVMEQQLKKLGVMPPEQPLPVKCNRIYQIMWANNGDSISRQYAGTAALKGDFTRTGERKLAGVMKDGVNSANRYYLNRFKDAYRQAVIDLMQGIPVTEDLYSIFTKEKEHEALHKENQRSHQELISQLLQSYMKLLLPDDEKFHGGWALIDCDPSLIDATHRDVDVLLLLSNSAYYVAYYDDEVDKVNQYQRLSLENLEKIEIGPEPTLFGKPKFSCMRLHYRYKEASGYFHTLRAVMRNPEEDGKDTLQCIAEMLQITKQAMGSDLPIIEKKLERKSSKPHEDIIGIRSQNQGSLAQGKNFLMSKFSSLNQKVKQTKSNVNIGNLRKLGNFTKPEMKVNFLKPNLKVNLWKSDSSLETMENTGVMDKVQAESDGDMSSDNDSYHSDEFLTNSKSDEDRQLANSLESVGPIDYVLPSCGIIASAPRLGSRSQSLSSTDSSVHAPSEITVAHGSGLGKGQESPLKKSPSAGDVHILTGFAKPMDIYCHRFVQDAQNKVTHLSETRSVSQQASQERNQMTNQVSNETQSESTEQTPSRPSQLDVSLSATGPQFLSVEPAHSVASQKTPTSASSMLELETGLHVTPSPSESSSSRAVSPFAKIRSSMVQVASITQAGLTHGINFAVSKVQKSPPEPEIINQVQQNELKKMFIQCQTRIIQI
UniProt P01871, whole entry, looked up: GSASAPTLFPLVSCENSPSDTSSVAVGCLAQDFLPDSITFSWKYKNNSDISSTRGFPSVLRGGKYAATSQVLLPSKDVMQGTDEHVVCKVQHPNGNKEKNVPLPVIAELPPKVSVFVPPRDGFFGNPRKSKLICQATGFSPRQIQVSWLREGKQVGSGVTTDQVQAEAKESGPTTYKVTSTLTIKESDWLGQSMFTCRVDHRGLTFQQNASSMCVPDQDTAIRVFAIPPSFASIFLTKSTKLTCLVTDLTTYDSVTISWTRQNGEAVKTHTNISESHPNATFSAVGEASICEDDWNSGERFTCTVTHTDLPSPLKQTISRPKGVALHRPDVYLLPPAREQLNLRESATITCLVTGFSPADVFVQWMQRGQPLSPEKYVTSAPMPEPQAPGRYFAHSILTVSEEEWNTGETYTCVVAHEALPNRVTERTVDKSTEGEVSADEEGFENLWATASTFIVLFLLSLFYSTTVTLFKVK
UniProt Q14773: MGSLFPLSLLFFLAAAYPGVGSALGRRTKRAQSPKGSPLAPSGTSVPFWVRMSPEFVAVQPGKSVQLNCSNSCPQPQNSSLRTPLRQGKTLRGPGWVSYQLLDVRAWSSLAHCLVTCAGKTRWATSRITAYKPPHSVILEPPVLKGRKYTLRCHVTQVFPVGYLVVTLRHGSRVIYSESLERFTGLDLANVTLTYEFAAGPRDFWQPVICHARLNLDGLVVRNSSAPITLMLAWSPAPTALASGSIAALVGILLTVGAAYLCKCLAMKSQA
UniProt P83110, whole entry, looked up: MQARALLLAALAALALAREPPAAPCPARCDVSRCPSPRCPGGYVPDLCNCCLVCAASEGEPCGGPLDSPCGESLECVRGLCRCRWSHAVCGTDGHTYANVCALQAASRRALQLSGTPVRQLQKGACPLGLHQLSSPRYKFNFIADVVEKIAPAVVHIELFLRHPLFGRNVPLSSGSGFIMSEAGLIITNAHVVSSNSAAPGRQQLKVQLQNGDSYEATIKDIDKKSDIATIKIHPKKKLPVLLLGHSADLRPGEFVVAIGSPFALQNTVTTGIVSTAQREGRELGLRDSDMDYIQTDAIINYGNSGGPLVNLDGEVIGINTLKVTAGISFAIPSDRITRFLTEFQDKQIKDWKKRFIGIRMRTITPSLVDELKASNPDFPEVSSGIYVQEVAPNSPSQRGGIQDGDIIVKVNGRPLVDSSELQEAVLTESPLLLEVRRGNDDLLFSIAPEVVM
UniProt A2RU49: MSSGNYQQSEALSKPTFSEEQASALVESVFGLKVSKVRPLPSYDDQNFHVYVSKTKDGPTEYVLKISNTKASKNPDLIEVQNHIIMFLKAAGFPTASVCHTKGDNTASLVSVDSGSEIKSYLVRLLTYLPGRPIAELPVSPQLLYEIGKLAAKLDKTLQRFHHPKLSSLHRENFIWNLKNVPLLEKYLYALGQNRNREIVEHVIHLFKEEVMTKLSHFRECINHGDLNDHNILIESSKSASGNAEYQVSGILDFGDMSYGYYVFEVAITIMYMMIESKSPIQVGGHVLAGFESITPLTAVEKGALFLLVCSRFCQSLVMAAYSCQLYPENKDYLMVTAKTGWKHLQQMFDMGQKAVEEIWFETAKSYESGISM
UniProt O14732: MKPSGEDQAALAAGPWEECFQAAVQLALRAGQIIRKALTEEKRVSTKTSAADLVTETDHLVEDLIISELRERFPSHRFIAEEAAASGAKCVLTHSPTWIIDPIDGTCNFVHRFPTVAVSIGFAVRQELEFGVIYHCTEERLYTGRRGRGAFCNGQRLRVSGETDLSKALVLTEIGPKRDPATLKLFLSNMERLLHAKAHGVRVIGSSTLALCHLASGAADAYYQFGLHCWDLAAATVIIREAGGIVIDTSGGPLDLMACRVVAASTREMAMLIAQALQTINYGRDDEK
UniProt P0DMQ5: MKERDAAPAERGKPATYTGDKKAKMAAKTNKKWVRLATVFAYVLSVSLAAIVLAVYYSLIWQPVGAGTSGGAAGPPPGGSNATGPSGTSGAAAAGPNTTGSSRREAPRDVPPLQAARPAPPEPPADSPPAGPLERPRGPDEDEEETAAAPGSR
UniProt P17181: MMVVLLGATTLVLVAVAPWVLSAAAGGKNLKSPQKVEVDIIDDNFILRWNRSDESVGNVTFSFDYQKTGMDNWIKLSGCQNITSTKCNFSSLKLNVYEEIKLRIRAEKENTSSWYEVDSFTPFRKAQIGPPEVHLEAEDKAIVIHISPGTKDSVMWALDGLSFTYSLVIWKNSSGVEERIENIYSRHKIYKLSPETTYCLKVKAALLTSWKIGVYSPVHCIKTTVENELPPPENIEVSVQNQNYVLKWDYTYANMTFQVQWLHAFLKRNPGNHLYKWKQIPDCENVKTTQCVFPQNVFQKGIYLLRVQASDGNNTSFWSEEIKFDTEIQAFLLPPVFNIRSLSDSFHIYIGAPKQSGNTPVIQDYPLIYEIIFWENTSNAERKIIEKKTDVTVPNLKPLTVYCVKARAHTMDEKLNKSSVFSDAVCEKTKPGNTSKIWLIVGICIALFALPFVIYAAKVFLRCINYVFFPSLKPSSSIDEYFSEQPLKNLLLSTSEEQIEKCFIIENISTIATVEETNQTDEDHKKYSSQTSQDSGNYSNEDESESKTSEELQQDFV
UniProt Q9NRR6: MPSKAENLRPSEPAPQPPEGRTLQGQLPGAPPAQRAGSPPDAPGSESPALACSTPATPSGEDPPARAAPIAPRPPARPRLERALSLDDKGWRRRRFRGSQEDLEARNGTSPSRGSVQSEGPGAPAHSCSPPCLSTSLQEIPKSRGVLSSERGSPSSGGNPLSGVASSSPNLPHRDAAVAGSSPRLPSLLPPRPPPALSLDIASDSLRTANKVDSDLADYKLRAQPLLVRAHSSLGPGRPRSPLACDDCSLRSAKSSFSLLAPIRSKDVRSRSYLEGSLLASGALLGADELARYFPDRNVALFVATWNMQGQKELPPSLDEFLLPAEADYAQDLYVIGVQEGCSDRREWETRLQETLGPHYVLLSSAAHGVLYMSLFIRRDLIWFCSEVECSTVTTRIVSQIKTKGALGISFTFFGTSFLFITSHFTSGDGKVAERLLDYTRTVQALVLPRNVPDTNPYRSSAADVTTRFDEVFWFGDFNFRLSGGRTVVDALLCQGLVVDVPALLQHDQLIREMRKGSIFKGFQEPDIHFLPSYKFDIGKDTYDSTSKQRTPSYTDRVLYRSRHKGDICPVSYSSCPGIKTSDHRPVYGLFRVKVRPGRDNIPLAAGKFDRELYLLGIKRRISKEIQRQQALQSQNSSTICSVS
UniProt P01876, whole entry, looked up: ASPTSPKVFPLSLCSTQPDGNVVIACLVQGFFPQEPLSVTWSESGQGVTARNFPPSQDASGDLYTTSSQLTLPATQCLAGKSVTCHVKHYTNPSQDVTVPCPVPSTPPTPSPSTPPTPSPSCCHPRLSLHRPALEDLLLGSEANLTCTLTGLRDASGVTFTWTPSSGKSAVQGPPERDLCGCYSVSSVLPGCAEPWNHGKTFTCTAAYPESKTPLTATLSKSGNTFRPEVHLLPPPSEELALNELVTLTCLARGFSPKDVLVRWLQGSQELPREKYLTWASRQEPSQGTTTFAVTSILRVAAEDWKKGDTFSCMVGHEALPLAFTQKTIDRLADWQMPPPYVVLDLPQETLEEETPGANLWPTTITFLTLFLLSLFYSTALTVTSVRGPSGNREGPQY

Legend:
Test in all cases: log2 fold change, soluble protein after heating vs DMSO (PISA); higher = thermal stabilisation; K562 lysate, 10 uM; active = over 0.2 and 3.5 SD of the protein, either way, in both replicates (recomputed)
nilotinib = compound: Cc1cn(-c2cc(NC(=O)c3ccc(C)c(Nc4nccc(-c5cccnc5)n4)c3)cc(C(F)(F)F)c2)cn1 [nilotinib]
Method in brief: (§1)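 A 30 min treatment with 10 μM compound was applied to crude K562 extract at 1 mg/mL protein in PBS pH 7.4 with 1 mM MgCl2. Heating for 3 min spanned 48°C-58°C, after which aliquots were pooled, adjusted to 0.5% NP-40 at 4°C and spun at 21,000xg for 90 min. TMTpro 16plex LC-MS/MS of the supernatant, with channel sums equalised, gave values recorded as log-two fold change in thermal stability against solvent controls, from duplicates.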

[1] = compound: Cc1nc(Nc2n[nH]c3c2CN(C(=O)N[C@H](CN(C)C)c2ccccc2)C3(C)C)c2sccc2n1
Method in brief: as §1

dasatinib = compound: Cc1nc(Nc2ncc(C(=O)Nc3c(C)cccc3Cl)s2)cc(N2CCN(CCO)CC2)n1 [dasatinib]
Method in brief: as §1

[2] = compound: Cc1ncc(-c2ccnc(Nc3ccc(S(C)(=O)=O)cc3)n2)n1C(C)C
Method in brief: as §1

[3] = compound: Cn1cc(-c2ccc3c(c2)CCN3C(=O)Cc2cccc(C(F)(F)F)c2)c2c(N)ncnc21
Method in brief: as §1

quisinostat = compound: Cn1cc(CNCC2CCN(c3ncc(C(=O)NO)cn3)CC2)c2ccccc21 [quisinostat]
Method in brief: as §1

tipifarnib = compound: Cn1cncc1[C@@](N)(c1ccc(Cl)cc1)c1ccc2c(c1)c(-c1cccc(Cl)c1)cc(=O)n2C [tipifarnib]
Method in brief: as §1

[4] = compound: NC(=O)Nc1cc(-c2cccc(F)c2)sc1C(=O)N[C@H]1CCCNC1
Method in brief: as §1

[5] = compound: NC(=O)c1cnc(N[C@@H]2CCCC[C@@H]2N)nc1Nc1cccc(-n2nccn2)c1
Method in brief: as §1

[6] = compound: NC1(c2ccc(-c3nc4ccn5c(=O)[nH]nc5c4cc3-c3ccccc3)cc2)CCC1
Method in brief: as §1

Measured: log2 fold change

HSPD1 (UniProt P10809)
inactive: nilotinib 0.019 | [1] -0.012 | dasatinib 0.001 | [2] 0.013 | [3] -0.008 | quisinostat 0 | tipifarnib -0.003 | [4] -0.02 | [5] -0.004 | [6] 0.024

IMMP1L (UniProt Q96LU5)
inactive: nilotinib -0.011 | [1] 0.012 | dasatinib 0.008 | [2] 0.016 | [3] -0.033 | quisinostat -0.066 | tipifarnib -0.028 | [4] 0.008 | [5] 0.016 | [6] -0.065

IFT74 (UniProt Q96LB3)
inactive: nilotinib 0.064 | [1] 0.001 | dasatinib -0.001 | [2] -0.016 | [3] 0.013 | quisinostat -0.124 | tipifarnib -0.06 | [4] 0.027 | [5] 0.003 | [6] -0.101

HUWE1 (UniProt Q7Z6Z7)
inactive: nilotinib 0.02 | [1] 0.004 | dasatinib -0.011 | [2] -0.001 | [3] 0.014 | quisinostat 0.001 | tipifarnib -0.002 | [4] 0.01 | [5] -0.004 | [6] 0

IMMP2L (UniProt Q96T52)
inactive: nilotinib -0.059 | [1] 0.067 | dasatinib -0.065 | [2] 0 | [3] 0.005 | quisinostat -0.004 | tipifarnib -0.038 | [4] 0.043 | [5] 0.042 | [6] 0.193

HSPBP1 (UniProt Q9NZL4)
inactive: nilotinib -0.011 | [1] 0 | dasatinib -0.051 | [2] 0.012 | [3] -0.015 | quisinostat -0.045 | tipifarnib 0.002 | [4] 0.017 | [5] 0.006 | [6] -0.01

HSPA8 (UniProt P11142)
inactive: nilotinib -0.01 | [1] 0.002 | dasatinib 0.013 | [2] 0.004 | [3] -0.007 | quisinostat 0.022 | tipifarnib 0 | [4] -0.024 | [5] -0.008 | [6] 0.003

ICAM2 (UniProt P13598)
inactive: nilotinib 0.081 | [1] -0.077 | dasatinib 0.013 | [2] 0.012 | [3] -0.035 | quisinostat 0.007 | tipifarnib -0.016 | [4] -0.018 | [5] -0.004 | [6] 0.018

IL27RA (UniProt Q6UWB1)
inactive: nilotinib -0.069 | [1] -0.08 | dasatinib 0.11 | [2] 0.084 | [3] -0.049 | quisinostat 0.019 | tipifarnib -0.067 | [4] -0.098 | [5] 0.059 | [6] -0.016

IDI1 (UniProt Q13907)
inactive: nilotinib 0.034 | [1] 0.048 | dasatinib 0.011 | [2] 0.055 | [3] -0.089 | quisinostat 0.047 | tipifarnib -0.002 | [4] -0.045 | [5] 0.028 | [6] -0.002

IER3IP1 (UniProt Q9Y5U9)
inactive: nilotinib -0.062 | [1] 0.073 | dasatinib 0.009 | [2] 0.057 | [3] 0.007 | tipifarnib -0.279 | [5] 0.041 | [6] -0.129

IGHG3 (UniProt P01860)
inactive: nilotinib 0.355 | [1] -0.106 | [2] 0 | tipifarnib -0.344 | [5] 0.265

ING5 (UniProt Q8WYH8)
inactive: nilotinib 0.05 | [1] -0.107 | dasatinib -0.165 | [2] 0.167 | [3] -0.035 | tipifarnib 0.016 | [5] 0.116 | [6] -0.144

HUWE1 (UniProt H0Y659)
inactive: dasatinib -0.088 | [3] 0.171

INHBE (UniProt P58166)
inactive: nilotinib 0.032 | [1] -0.073 | [2] 0.121 | quisinostat -0.096 | tipifarnib 0.071 | [4] -0.098 | [6] 0.027

IGKV3D-7, A0A0C4DH55
inactive: nilotinib 0.126 | [1] -0.151 | [2] -0.221 | tipifarnib -0.235 | [6] 0.336

ILF3 (UniProt Q12906)
inactive: dasatinib 0.028 | [3] -0.112 | quisinostat -0.033 | [4] -0.001 | [5] -0.097 | [6] -0.047

HTD2 (UniProt P86397)
inactive: nilotinib 0.195 | [1] -0.07 | [2] 0.079 | quisinostat 0.021 | tipifarnib -0.228 | [4] 0.015 | [5] -0.064

INPP5F (UniProt Q9Y2H2)
inactive: nilotinib 0.143 | [1] -0.068 | dasatinib 0.01 | [2] 0.603 | [3] -0.146 | tipifarnib -0.014 | [5] 0.075 | [6] -0.211

IGHG1 (UniProt P01857)
inactive: nilotinib 0.335 | [1] 0.049 | dasatinib 0.081 | [2] 0.071 | [3] -0.057 | quisinostat 0.159 | tipifarnib -0.315 | [4] -0.178 | [6] 0.794

IFRD2 isoform 2 (UniProt Q12894)
inactive: dasatinib 0.021 | [3] -0.014 | quisinostat -0.002 | [4] 0.075 | [5] 0.004 | [6] -0.004

INO80C isoform 4 (UniProt Q6PI98)
inactive: nilotinib 0.208 | [1] -0.213 | dasatinib 0.04 | [2] -0.046 | [3] -0.037 | tipifarnib 0.073 | [5] -0.129

IGLC3 (UniProt P0DOY3)
inactive: nilotinib 0.009 | [1] -0.095 | dasatinib -0.234 | [2] 0.004 | [3] 0.607 | tipifarnib -0.217 | [6] 0.863

IGHM isoform 2 (UniProt P01871)
inactive: nilotinib 0.147 | [1] 0.227 | dasatinib -1.6 | [2] -0.064 | [3] 0.407 | tipifarnib -0.106

Two neighbouring records out of the list so far, for reference:
IGHG1 (UniProt P01857)
inactive: nilotinib 0.335 | [1] 0.049 | dasatinib 0.081 | [2] 0.071 | [3] -0.057 | quisinostat 0.159 | tipifarnib -0.315 | [4] -0.178 | [6] 0.794

IFRD2 isoform 2 (UniProt Q12894)
inactive: dasatinib 0.021 | [3] -0.014 | quisinostat -0.002 | [4] 0.075 | [5] 0.004 | [6] -0.004

(further entries)

IFT46 isoform 2 (UniProt Q9NQC8)
inactive: nilotinib 0.043 | [1] -0.044 | [2] -0.271 | quisinostat 0.015 | tipifarnib -0.263 | [4] -0.023 | [5] 0.147

INCENP (UniProt Q9NQS7)
inactive: dasatinib -0.134 | [3] 0.106

IKZF4 (UniProt Q9H2S9)
inactive: nilotinib -0.134 | [1] 0.073 | [2] -0.112 | quisinostat -0.079 | tipifarnib 0.081 | [4] 0.013 | [5] -0.071

ICAM4 (UniProt Q14773)
inactive: dasatinib 0.023 | [3] -0.024

IGKC (UniProt P01834)
inactive: nilotinib 0.008 | [1] 0.007 | dasatinib 0.023 | [2] 0.015 | [3] 0.35 | tipifarnib -0.192 | [5] -0.124 | [6] 0.762

IFT52 (UniProt Q9Y366)
inactive: nilotinib 0.049 | [1] 0.02 | [2] -0.017 | quisinostat -0.023 | tipifarnib -0.017 | [4] -0.007 | [6] -0.006

IFT88 (UniProt Q13099)
inactive: nilotinib 0.163 | [1] -0.03 | [2] 0.193 | quisinostat -0.292 | tipifarnib -0.431 | [4] 0.089

IFT172 (UniProt Q9UG01)
inactive: nilotinib -0.081 | [1] 0.156 | dasatinib -0.269 | [2] -0.12 | [3] 0.231 | tipifarnib -0.068 | [6] 0.004

IGKV3-20 (UniProt P01619)
inactive: dasatinib -0.873 | [3] 0.461

HTRA3 (UniProt P83110)
inactive: nilotinib -0.172 | [1] 0.021 | [2] -0.184 | tipifarnib 0

HTT (UniProt P42858)
inactive: nilotinib -0.106 | [1] 0.003 | dasatinib 0.001 | [2] 0.072 | [3] 0.072 | quisinostat -0.081 | tipifarnib -0.072 | [4] 0.041 | [6] 0.005

HYKK (UniProt A2RU49)
inactive: nilotinib 0.067 | [1] 0.071 | [2] 0.075 | quisinostat -0.051 | tipifarnib -0.123 | [4] 0.122 | [5] -0.033 | [6] -0.057

IMPA2 (UniProt O14732)
inactive: dasatinib -0.004 | [3] 0.084 | quisinostat -0.002 | [4] -0.026 | [5] 0.011 | [6] 0.027

INAFM2 (UniProt P0DMQ5)
inactive: dasatinib -0.08 | [3] 0.04 | quisinostat -0.012 | [4] 0.029

HSPBP1 (UniProt K7EMM7)
inactive: dasatinib -0.073 | [3] 0.061

IFNAR1 (UniProt P17181)
inactive: dasatinib -0.044 | [3] 0.092 | quisinostat -0.094 | [4] 0.084

INPP5E (UniProt Q9NRR6)
inactive: nilotinib 0.041 | [1] -0.051 | [2] -0.125 | quisinostat -0.134 | tipifarnib -0.089 | [4] 0.194 | [6] -0.181

IGHA1 (UniProt P01876)
inactive: nilotinib 0.017 | [1] -0.033 | dasatinib 0.175 | [2] 0.002 | [3] 0.886 | quisinostat 0.568 | tipifarnib -0.129 | [4] -0.11 | [6] 1.1

IL17RA (UniProt Q96F46)
inactive: dasatinib 0.078 | [3] -0.003 | quisinostat 0.282 | [4] 0.039 | [5] -0.129
